Experimental data reported in PubChem BioAssay AID504847 (National Center for Advancing Translational Sciences (NCATS), 2011).
About 3,700 (0.93%) of roughly 400,000 compounds were called active. Inconclusive means that the source gave no clear call. Such entries were picked first, then a sample of the others. Calls come from the whole dose curve; as a rule, active = well fitted inhibition curve with a large enough effect; inconclusive = small, poorly fitted or top-dose-only effect, or another doubt; inactive = no such curve, though single readings can be large or run the other way. Potencies beside an inconclusive call are fits to weak or partial responses and may not hold up.

Amino acid sequences for entries named in this document (tags omitted).
UniProt P11473, whole entry, looked up: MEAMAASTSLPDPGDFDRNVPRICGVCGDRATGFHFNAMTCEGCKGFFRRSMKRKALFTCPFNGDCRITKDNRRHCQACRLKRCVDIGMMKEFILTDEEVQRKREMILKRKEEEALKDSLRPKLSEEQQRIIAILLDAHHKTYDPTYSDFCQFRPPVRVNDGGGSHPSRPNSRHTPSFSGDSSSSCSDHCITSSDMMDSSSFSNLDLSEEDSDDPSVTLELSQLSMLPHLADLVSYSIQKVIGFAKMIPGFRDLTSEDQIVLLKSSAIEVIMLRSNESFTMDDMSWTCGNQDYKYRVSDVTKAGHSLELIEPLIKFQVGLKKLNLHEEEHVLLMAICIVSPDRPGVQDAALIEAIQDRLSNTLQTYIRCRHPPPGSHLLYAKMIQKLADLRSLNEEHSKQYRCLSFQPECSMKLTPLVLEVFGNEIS

The molecules below were run against Vitamin D3 receptor (Homo sapiens) (UniProt P11473) (assay: Inhibitors of the vitamin D receptor (VDR): qHTS). Settings: VDR-SRC2-3 peptide fluorescence polarization, 2 h; max response, negative = inhibition: stronger effect = lower value.
Method in brief: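 Fluorescence polarization assay of small-molecule disruption of VDR binding to coregulator peptide SRC2-3. Compounds and controls pin-transferred, then read after 2 h incubation at ambient room temperature.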
% is set by controls: 0 for no effect and ±100 for the full control effect; potency is the fitted concentration of half-maximal effect.

SMILES	max response, negative = inhibition	Potency
COc1ccccc1-c1coc2cc(OC(=O)/C=C/c3ccccc3)ccc2c1=O	inactive: -13.4%	–
COc1ccc(/C=N/NC(C)(C)C)c(OC)c1	–	inconclusive: 79.4 µM [inhibitor, single point]
C=CCNC(=O)c1onc(CSc2ccc(F)c(F)c2)c1C(=O)O	–	inconclusive: 100 µM [inhibitor, single point]
COC(=O)CSc1nn(-c2ccc(F)cc2)c(=S)s1	–	inconclusive: 79.4 µM [inhibitor, partial curve]
COC(=O)c1ccc(Oc2cc(C)nc(SC)n2)cc1	–	inconclusive: 15.8 µM [inhibitor, partial curve, poor fit]
Cc1cccc(NC2SC(=O)NC2=O)c1 (configuration not stated)	inactive: -15.2%	–
O=c1ccccn1Cc1c(F)cccc1Cl	inactive: -21.3%	–
CC(C)c1ccc(S(=O)(=O)c2cnc(SCC(=O)Nc3ccc4c(c3)OCCO4)[nH]c2=O)cc1	–	inconclusive: 63.1 µM [inhibitor, partial curve, poor fit]
COCCNC(=S)NNc1cccc(C(=O)O)c1	–	inconclusive: 89.1 µM [inhibitor, single point]
COCCNC(=O)c1onc(CSc2ccc(F)c(F)c2)c1C(=O)NCCOC	inactive: 4.18%	–
O=C(CCCN1C(=O)/C(=C\c2ccco2)SC1=S)Nc1ccc(O)cc1C(=O)O	–	inconclusive: 63.1 µM [inhibitor, partial curve, poor fit]
CC(C)(C)S(=O)(=O)c1cnc(-c2cnccn2)nc1N	inactive: 4.7%	–
Oc1ccc(NCc2ccccc2OCc2ccc(Cl)cc2)cc1	–	inconclusive: 79.4 µM [inhibitor, partial curve, poor fit]
CC(C)(C)c1nnc(NS(=O)(=O)c2ccc([N+](=O)[O-])cc2)s1	–	inconclusive: 79.4 µM [inhibitor, single point]
CSc1nc(O)c(C(c2ccc(O)cc2)c2c(O)nc(SC)[nH]c2=O)c(=O)[nH]1	–	inconclusive: 39.8 µM [inhibitor, partial curve, poor fit]
CCOC(=O)CC(NC(=O)C1c2ccccc2Oc2ccccc21)c1ccccc1Cl (configuration not stated)	–	inconclusive: 79.4 µM [inhibitor, single point]
CCn1c(=O)cc(OCC(=O)N(C)c2cc(Cl)ccc2C)c2ccccc21	–	inconclusive: 100 µM [inhibitor, partial curve, poor fit]
Cc1ccccc1N1C(=O)c2sc3nc4c(c(=O)n3c2C1=O)CCC4	–	inconclusive: 20 µM [inhibitor, full curve, poor fit]
COCCNC(=O)C(=O)Nc1ccc(Cl)cc1C	–	inconclusive: 89.1 µM [inhibitor, single point]
CCOC(=O)N1CCN(Cc2ccc(O)c3ncccc23)CC1	–	inconclusive: 14.1 µM [inhibitor, partial curve]
O=S(=O)(c1ccc(F)cc1)N1CCCN(Cc2c(F)cccc2F)CC1	–	inconclusive: 89.1 µM [inhibitor, single point]

SMILES	max response, negative = inhibition	Potency
CC(C)Oc1ccc(C2CC(=O)N(c3cccc(Br)c3)C2=O)cc1 (configuration not stated)	–	inconclusive: 100 µM [inhibitor, single point]
CCc1nn(CC(=O)Nc2cccc(C(C)=O)c2)c(=O)c2cc3sccc3n12	inactive: -19.9%	–
Cc1cccc2cc(C3CC(c4cccs4)=NN3C(=O)CCC(=O)O)c(Cl)nc12 (configuration not stated)	–	inconclusive: 89.1 µM [inhibitor, single point]
O=C(C1CCCN(S(=O)(=O)c2cc(Cl)ccc2Cl)C1)N1CCCCCC1 (configuration not stated)	–	inconclusive: 11.2 µM [inhibitor, partial curve, poor fit]
COC1OC(CO)C(N=C(C)C)C1O (configuration not stated)	–	inconclusive: 100 µM [inhibitor, single point]
CN(C)c1ccc(NC(=O)CN2CCC(NC(=O)C3CCCCC3)CC2)cc1	inactive: -4.75%	–
COc1ccc(C)cc1N(CC(=O)N/N=C/c1ccccc1C(=O)O)S(=O)(=O)c1ccccc1	–	inconclusive: 100 µM [inhibitor, single point]
COc1ccc(C2(CNC(=O)/C=C/c3ccco3)CCCC2)cc1OC	–	inconclusive: 22.4 µM [inhibitor, partial curve, poor fit]
O=C(CSc1nc(-c2ccccc2)cc(=O)[nH]1)N1CCc2ccccc21	–	inconclusive: 8.91 µM [inhibitor, single point]
c1ccc(-c2nc(NCCCn3ccnc3)c3oc4ccccc4c3n2)cc1	inactive: 20.8%	–
Cc1ccc(/C=N/NC(=O)c2cccnc2)o1	inactive: 21.1%	–
O=C(Nc1ccccc1Cl)c1ccc([N+](=O)[O-])o1	–	inconclusive: 7.94 µM [inhibitor, partial curve, poor fit]
Cn1c(C(=O)NCCN2CCN(c3ccccc3F)CC2)cc2c(=O)n(C)c3ccccc3c21	–	inconclusive: 5.01 µM [inhibitor, full curve, poor fit]
COC1=C(Nc2ccc(OC)cc2)C(=O)c2ccccc2C1=O	–	inconclusive: 89.1 µM [inhibitor, single point]
Cc1cccc(C)c1NC(=O)CC1SC2=NCCN2C1=O (configuration not stated)	–	inconclusive: 44.7 µM [inhibitor, partial curve, poor fit]
O=C(CSCc1cnn(-c2ccccc2)c1-n1cccc1)NCc1cccc(Cl)c1	inactive: 10.1%	–
Cc1ccc(CNC(=O)CCCC(=O)Nc2cc(C)on2)cc1	–	inconclusive: 25.1 µM [inhibitor, single point]
Cc1cc(SCC(=O)NC(=O)NCc2ccco2)nc2c(C)cccc12	–	inconclusive: 56.2 µM [inhibitor, partial curve, poor fit]
O=C(NCc1cccnc1)C(=O)Nc1ccc2c(c1)OCO2	–	inconclusive: 89.1 µM [inhibitor, partial curve, poor fit]
COc1ccc(/C=C2\N=C(c3ccc(C)cc3)OC2=O)cc1	–	inconclusive: 79.4 µM [inhibitor, single point]
CCN(CC)c1ccc(/C=N/Nc2ccccc2)c(O)c1	–	active: 79.4 µM

Among those listed so far, six contain a furan ring, fused or not.
SMILES	max response, negative = inhibition	Potency
O=C(CCCN1C(=O)/C(=C\c2ccco2)SC1=S)Nc1ccc(O)cc1C(=O)O	–	inconclusive: 63.1 µM [inhibitor, partial curve, poor fit]
COc1ccc(C2(CNC(=O)/C=C/c3ccco3)CCCC2)cc1OC	–	inconclusive: 22.4 µM [inhibitor, partial curve, poor fit]
c1ccc(-c2nc(NCCCn3ccnc3)c3oc4ccccc4c3n2)cc1	inactive: 20.8%	–
Cc1ccc(/C=N/NC(=O)c2cccnc2)o1	inactive: 21.1%	–
O=C(Nc1ccccc1Cl)c1ccc([N+](=O)[O-])o1	–	inconclusive: 7.94 µM [inhibitor, partial curve, poor fit]
Cc1cc(SCC(=O)NC(=O)NCc2ccco2)nc2c(C)cccc12	–	inconclusive: 56.2 µM [inhibitor, partial curve, poor fit]
